We go through 2 substances from publication PMC7026407.

These are yes or no findings as the source states them, for the method shown.

Assay [1] deals with T1, IGFBP-7 (UniProt Q16270).
T1 sequence: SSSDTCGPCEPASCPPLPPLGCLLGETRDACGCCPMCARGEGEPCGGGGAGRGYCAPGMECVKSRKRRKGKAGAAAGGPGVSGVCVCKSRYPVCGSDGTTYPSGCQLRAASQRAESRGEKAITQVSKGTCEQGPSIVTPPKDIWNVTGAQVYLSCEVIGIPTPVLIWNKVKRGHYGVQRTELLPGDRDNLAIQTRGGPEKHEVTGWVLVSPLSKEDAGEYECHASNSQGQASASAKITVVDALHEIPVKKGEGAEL
As to the kind of experiment: SPR; IGF binding protein or Fc fusion amine-coupled to a CM4 chip, growth factor as analyte; Biacore T100/T200; HBS-P, with 0.2 mg/ml BSA or 0.65 M NaCl to reduce non-specific binding; 25 °C; 1:1 binding fit; both purified. (In general: Surface plasmon resonance follows binding to a sensor surface in real time, without labels.)

In assay [2] the target is T1, IGFBP-7. As to the kind of experiment: SPR; IGF binding protein or Fc fusion amine-coupled to a CM4 chip, growth factor as analyte; Biacore T100 or T200, HBS-P, BSA (0.2 mg/ml) or NaCl (0.65 M final) to reduce non-specific binding, 25 °C; 1:1 binding analysis; both purified.

Take VEGF (ligand): the binding entry with IGFBP-7 [1] was “no binding”.
Regarding VEGF-A 165 (ligand), in the assay with IGFBP-7 [2], the binding entry is “no binding”.
